Data taken from paper PMC7720568.
Substitutions are numbered along the chain they refer to. Numbers in names are those of the source. Results are given in words; binding and its absence hold for the method and conditions named. For some assays here: Binding seen in cells or lysates may run through a third protein. Some results given as binding are weak or reduced against the parent protein; the word gives no strength. For some assays here: Tags and fused reporters may be left off the sequences shown. Values belong to the binder of their own block, whether it stands above or below them.

Chains of the proteins cited; added tags and fusions are not shown. Residues count along the entry.
UniProt P28074, residues 60-263: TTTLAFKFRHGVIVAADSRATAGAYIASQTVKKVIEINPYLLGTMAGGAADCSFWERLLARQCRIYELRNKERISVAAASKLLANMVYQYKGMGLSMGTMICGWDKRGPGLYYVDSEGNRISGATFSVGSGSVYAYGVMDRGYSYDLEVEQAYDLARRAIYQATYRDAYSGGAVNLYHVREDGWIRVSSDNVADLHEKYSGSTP

Assays:
[1] = molecular target: T1, Glutathione synthetase (human (endogenous in HepG2)) (UniProt P48637); test: proximity ligation; Duolink PLA in fixed HepG2 cells expressing RRM2^WT, RRM2^T33A or RRM2^T33E; anti-Myc and anti-GSS primary antibodies
T1 sequence: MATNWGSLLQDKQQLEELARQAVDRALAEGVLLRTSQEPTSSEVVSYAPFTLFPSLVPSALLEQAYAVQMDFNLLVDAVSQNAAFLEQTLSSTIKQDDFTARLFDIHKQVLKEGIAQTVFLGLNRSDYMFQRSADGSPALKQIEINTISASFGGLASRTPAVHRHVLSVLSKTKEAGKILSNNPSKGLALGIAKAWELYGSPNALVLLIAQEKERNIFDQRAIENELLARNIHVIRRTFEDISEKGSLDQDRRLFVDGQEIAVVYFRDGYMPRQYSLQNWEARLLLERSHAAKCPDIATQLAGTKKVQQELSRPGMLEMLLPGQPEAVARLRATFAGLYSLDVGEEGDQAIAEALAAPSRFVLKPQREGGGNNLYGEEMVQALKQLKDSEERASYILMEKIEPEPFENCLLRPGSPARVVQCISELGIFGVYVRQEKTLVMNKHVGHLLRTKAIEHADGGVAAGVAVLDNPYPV

[2] = molecular target: T1, Glutathione synthetase (human (endogenous in HepG2)); test: co-IP; reciprocal IP of RRM2 and GSS from lysates of RRM2-/- HepG2 cells reconstituted with RRM2^WT, RRM2^T33A or RRM2^T33E; antibodies at 4 °C overnight, protein A/G magnetic beads, immunoblot
[3] = molecular target: PSMB5 (human (endogenous in HepG2)) (UniProt P28074); test: co-IP; IP with anti-PSMB5 from lysates of RRM2-/- HepG2 cells reconstituted with RRM2^WT, RRM2^T33A or RRM2^T33E; immunoblot with anti-RRM2 and anti-GSS
[4] = molecular target: T1, Glutathione synthetase (human (endogenous in HepG2)); test: co-IP; reciprocal IP of endogenous RRM2 and GSS from HepG2 lysates, cells with or without NU6102 (20 μM, 24 h) and SB203580 (10 μM, 24 h); protein A/G magnetic beads, immunoblot
[5] = molecular target: PSMB5 (human (endogenous in HepG2)) (UniProt P28074); test: proteasome isolation with affinity beads (kit); proteasomes isolated with the Sigma proteasome isolation kit (#539176) from HepG2 cells with or without erastin (10 μM, 24 h) in the presence of MG132 (8 μM, 24 h); affinity and control beads in parallel; immunoblot

B2: Ribonucleotide reductase regulatory subunit M2, T33E mutant, Myc-tagged (protein, UniProt P31350 1-389)
chain: MLSLRVPLAPITDPQQLQLSPLKGLSLVDKENEPPALSGTRVLASKTARRIFQEPTEPKTKAAAPGVEDEPLLRENPRRFVIFPIEYHDIWQMYKKAEASFWTAEEVDLSKDIQHWESLKPEERYFISHVLAFFAASDGIVNENLVERFSQEVQITEARCFYGFQIAMENIHSEMYSLLIDTYIKDPKEREFLFNAIETMPCVKKKADWALRWIGDKEATYGERVVAFAAVEGIFFSGSFASIFWLKKRGLMPGLTFSNELISRDEGLHCDFACLMFKHLVHKPSEERVREIIINAVRIEQEFLTEALPVKLIGMNCTLMKQYIEFVADRLMLELGFSKVFRVENPFDFMENISLEGKTNFFEKRVGEYQRMGVMSSPTENSFTLDADF
binding [3]: binds

B4: Ribonucleotide reductase regulatory subunit M2, T33A mutant, Myc-tagged (protein, UniProt P31350 1-389)
chain: B2 chain with E33A
binding [1]: binds
binding [2]: binds
binding [3]: binds

B5: Glutathione synthetase (enzyme, UniProt P48637 1-474)
chain: T1 sequence
binding [5]: binds
binding [3]: binds

More lines, now with the values ahead:

binding [1]: binds
binding [2]: binds
binding [3]: binds
B1: Ribonucleotide reductase regulatory subunit M2, wild type, Myc-tagged (protein, UniProt P31350 1-389)
chain: B2 chain with E33T

binding [4]: binds
binding [5]: binds
B3: Ribonucleotide reductase regulatory subunit M2, endogenous (protein, UniProt P31350 1-389)
chain: B2 chain with E33T
